# Data as given in the supplement of paper PMC8728848.
# Some of the results follow.
# B1: SJCP3842 (Schistosoma japonicum) (protein)
# chain: MFKMRIINLVNISTVLLLINLLQTKSRLVGKENGFMLTVSIYGAQLSDKMTSVPVSWTIDYEDPEKSAFKKLVTDSCDTFSEYVKSQIPKGSVDGQCTSHIFQRPGSGSGVSISLTLSFIYVDVTQPDTVALKTELEKHFANFVTIHSHKITQAQFRINQKAIVIPTGDKDAIDGSKWKIIAIIALVALAIVVIGGFIYICVK
# Experiments:
# Test in all cases: glycan array binding signal (z-score within array); higher = stronger binding
# Conditions in all cases: glycan notation: IUPAC condensed, linker removed
# Fuc(a1-2)Gal = target: Fuc(a1-2)Gal
# Procedure, shortened: (§1)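 Glycan array data came from 3228 arrays in the Consortium for Functional Glycomics database, and only arrays with an available protein sequence were kept. Glycan names were put into IUPAC-condensed notation, and columns mapping to the same glycan were averaged. The binding signal is a within-array Z-score, averaged across arrays of one protein sequence run at different concentrations or buffers and across linkers. A negative Z-score can be read as non-binding.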
# Fuc(a1-2)Gal(b1-3)GalNAc = target: Fuc(a1-2)Gal(b1-3)GalNAc
# Procedure, shortened: as §1
# [1] = target: Fuc(a1-2)Gal(b1-3)GalNAc(a1-3)[Fuc(a1-2)]Gal(b1-4)Glc
# Procedure, shortened: as §1
# [2] = target: Fuc(a1-2)Gal(b1-3)GalNAc(a1-3)[Fuc(a1-2)]Gal(b1-4)GlcNAc
# Procedure, shortened: as §1
# [3] = target: Fuc(a1-2)Gal(b1-3)GalNAc(b1-3)Gal
# Procedure, shortened: as §1
# [4] = target: Fuc(a1-2)Gal(b1-3)GalNAc(b1-3)Gal(a1-4)Gal(b1-4)Glc
# Procedure, shortened: as §1
# [5] = target: Fuc(a1-2)Gal(b1-3)GalNAc(b1-4)[Neu5Ac(a2-3)]Gal(b1-4)Glc
# Procedure, shortened: as §1
# Fuc(a1-2)Gal(b1-3)GlcNAc = target: Fuc(a1-2)Gal(b1-3)GlcNAc
# Procedure, shortened: as §1
# [6] = target: Fuc(a1-2)Gal(b1-3)GlcNAc(b1-2)Man(a1-3)[Fuc(a1-2)Gal(b1-3)GlcNAc(b1-2)Man(a1-6)]Man(b1-4)GlcNAc(b1-4)GlcNAc
# Procedure, shortened: as §1
# [7] = target: Fuc(a1-2)Gal(b1-3)GlcNAc(b1-2)Man(a1-3)[Fuc(a1-2)Gal(b1-3)GlcNAc(b1-2)Man(a1-6)]Man(b1-4)GlcNAc(b1-4)[Fuc(a1-6)]GlcNAc
# Procedure, shortened: as §1
# [8] = target: Fuc(a1-2)Gal(b1-3)GlcNAc(b1-3)Gal(b1-4)Glc
# Procedure, shortened: as §1
# [9] = target: Fuc(a1-2)Gal(b1-3)GlcNAc(b1-3)GalNAc
# Procedure, shortened: as §1
# [10] = target: Fuc(a1-2)Gal(b1-3)GlcNAc(b1-3)[Fuc(a1-2)Gal(b1-3)GlcNAc(b1-6)]GalNAc
# Procedure, shortened: as §1
# [11] = target: Fuc(a1-2)Gal(b1-3)GlcNAc(b1-3)[Gal(b1-4)GlcNAc(b1-6)]Gal(b1-4)Glc
# Procedure, shortened: as §1
# [12] = target: Fuc(a1-2)Gal(b1-3)GlcNAc(b1-3)[Neu5Ac(a2-6)Gal(b1-4)GlcNAc(b1-6)]Gal(b1-4)Glc
# Procedure, shortened: as §1
# [13] = target: Fuc(a1-2)Gal(b1-3)GlcNAc6S
# Procedure, shortened: as §1
# [14] = target: Fuc(a1-2)Gal(b1-3)[Fuc(a1-4)]GlcNAc
# Procedure, shortened: as §1
# [15] = target: Fuc(a1-2)Gal(b1-3)[Fuc(a1-4)]GlcNAc(b1-2)Man(a1-3)[Fuc(a1-2)Gal(b1-3)[Fuc(a1-4)]GlcNAc(b1-2)Man(a1-3)]Man(b1-4)GlcNAc(b1-4)GlcNAc
# Procedure, shortened: as §1
# [16] = target: Fuc(a1-2)Gal(b1-3)[Fuc(a1-4)]GlcNAc(b1-2)Man(a1-3)[Fuc(a1-2)Gal(b1-3)[Fuc(a1-4)]GlcNAc(b1-2)Man(a1-6)]Man(b1-4)GlcNAc(b1-4)[Fuc(a1-6)]GlcNAc(b1-4)[Fuc(a1-6)]GlcNAc
# Procedure, shortened: as §1
# [17] = target: Fuc(a1-2)Gal(b1-3)[Fuc(a1-4)]GlcNAc(b1-3)[Fuc(a1-3)[Gal(b1-4)]GlcNAc(b1-6)]Gal(b1-4)Glc
# Procedure, shortened: as §1
# [18] = target: Fuc(a1-2)Gal(b1-3)[Fuc(a1-4)]GlcNAc(b1-3)[Gal(b1-4)GlcNAc(b1-6)]Gal(b1-4)Glc
# Procedure, shortened: as §1
# Fuc(a1-2)Gal(b1-4)Glc = target: Fuc(a1-2)Gal(b1-4)Glc
# Procedure, shortened: as §1
# Fuc(a1-2)Gal(b1-4)Glc6S = target: Fuc(a1-2)Gal(b1-4)Glc6S
# Procedure, shortened: as §1
# Fuc(a1-2)Gal(b1-4)GlcNAc = target: Fuc(a1-2)Gal(b1-4)GlcNAc
# Procedure, shortened: as §1
# [19] = target: Fuc(a1-2)Gal(b1-4)GlcNAc(b1-2)Man
# Procedure, shortened: as §1
# [20] = target: Fuc(a1-2)Gal(b1-4)GlcNAc(b1-2)Man(a1-3)[Fuc(a1-2)Gal(b1-4)GlcNAc(b1-2)Man(a1-6)]Man(b1-4)GlcNAc(b1-4)GlcNAc
# Procedure, shortened: as §1
# [21] = target: Fuc(a1-2)Gal(b1-4)GlcNAc(b1-2)Man(a1-3)[Fuc(a1-2)Gal(b1-4)GlcNAc(b1-2)Man(a1-6)]Man(b1-4)GlcNAc(b1-4)[Fuc(a1-6)]GlcNAc
# Procedure, shortened: as §1
# [22] = target: Fuc(a1-2)Gal(b1-4)GlcNAc(b1-2)[Fuc(a1-2)Gal(b1-4)GlcNAc(b1-4)]Man(a1-3)[Fuc(a1-2)Gal(b1-4)GlcNAc(b1-2)Man(a1-6)]Man(b1-4)GlcNAc(b1-4)GlcNAc
# Procedure, shortened: as §1
# [23] = target: Fuc(a1-2)Gal(b1-4)GlcNAc(b1-3)Gal(b1-4)GlcNAc
# Procedure, shortened: as §1
# [24] = target: Fuc(a1-2)Gal(b1-4)GlcNAc(b1-3)Gal(b1-4)GlcNAc(b1-2)Man(a1-3)[Fuc(a1-2)Gal(b1-4)GlcNAc(b1-3)Gal(b1-4)GlcNAc(b1-2)Man(a1-6)]Man(b1-4)GlcNAc(b1-4)GlcNAc
# Procedure, shortened: as §1
# [25] = target: Fuc(a1-2)Gal(b1-4)GlcNAc(b1-3)Gal(b1-4)GlcNAc(b1-3)Gal(b1-4)GlcNAc
# Procedure, shortened: as §1
# [26] = target: Fuc(a1-2)Gal(b1-4)GlcNAc(b1-3)GalNAc
# Procedure, shortened: as §1
# [27] = target: Fuc(a1-2)Gal(b1-4)GlcNAc(b1-3)[Fuc(a1-2)Gal(b1-4)GlcNAc(b1-6)]GalNAc
# Procedure, shortened: as §1
# [28] = target: Fuc(a1-2)Gal(b1-4)GlcNAc(b1-3)[Fuc(a1-3)[Gal(b1-4)]GlcNAc(b1-6)]Gal(b1-4)Glc
# Procedure, shortened: as §1
# [29] = target: Fuc(a1-2)Gal(b1-4)GlcNAc(b1-6)GalNAc
# Procedure, shortened: as §1
# [30] = target: Fuc(a1-2)Gal(b1-4)GlcNAc6S
# Procedure, shortened: as §1
# [31] = target: Fuc(a1-2)Gal(b1-4)[Fuc(a1-3)]GlcNAc
# Procedure, shortened: as §1
# [32] = target: Fuc(a1-2)Gal(b1-4)[Fuc(a1-3)]GlcNAc(b1-2)Man(a1-3)[Fuc(a1-2)Gal(b1-4)[Fuc(a1-3)]GlcNAc(b1-2)Man(a1-6)]Man(b1-4)GlcNAc(b1-4)[Fuc(a1-6)]GlcNAc
# Procedure, shortened: as §1
# [33] = target: Fuc(a1-2)Gal(b1-4)[Fuc(a1-3)]GlcNAc(b1-2)[Fuc(a1-2)Gal(b1-4)[Fuc(a1-3)]GlcNAc(b1-4)]Man(a1-3)[Fuc(a1-2)Gal(b1-4)[Fuc(a1-3)]GlcNAc(b1-2)Man(a1-6)]Man(b1-4)GlcNAc(b1-4)GlcNAc
# Procedure, shortened: as §1
# [34] = target: Fuc(a1-2)Gal(b1-4)[Fuc(a1-3)]GlcNAc(b1-3)Gal(b1-4)[Fuc(a1-3)]GlcNAc
# Procedure, shortened: as §1
# [35] = target: Fuc(a1-2)Gal(b1-4)[Fuc(a1-3)]GlcNAc(b1-3)Gal(b1-4)[Fuc(a1-3)]GlcNAc(b1-3)Gal(b1-4)[Fuc(a1-3)]GlcNAc
# Procedure, shortened: as §1
# [36] = target: Fuc(a1-2)Gal(b1-4)[Fuc(a1-3)]GlcNAc(b1-3)GalNAc
# Procedure, shortened: as §1
# [37] = target: Fuc(a1-2)Gal(b1-4)[Fuc(a1-3)]GlcNAc(b1-3)[Neu5Ac(a2-6)Gal(b1-4)GlcNAc(b1-6)]Gal(b1-4)Glc
# Procedure, shortened: as §1
# [38] = target: Fuc(a1-2)Gal3S(b1-4)GlcNAc
# Procedure, shortened: as §1
# [39] = target: Fuc(a1-2)Gal6S(b1-3)GlcNAc
# Procedure, shortened: as §1
binder,measurement,setting,value
B1,glycan array binding signal (z-score),Fuc(a1-2)Gal,0.195
same,glycan array binding signal (z-score),Fuc(a1-2)Gal(b1-3)GalNAc,-0.559
same,glycan array binding signal (z-score),[1],-1.25
same,glycan array binding signal (z-score),[2],-0.925
same,glycan array binding signal (z-score),[3],1.77
same,glycan array binding signal (z-score),[4],1.17
same,glycan array binding signal (z-score),[5],0.207
same,glycan array binding signal (z-score),Fuc(a1-2)Gal(b1-3)GlcNAc,-0.114
same,glycan array binding signal (z-score),[6],0.876
same,glycan array binding signal (z-score),[7],0.431
same,glycan array binding signal (z-score),[8],-1.06
same,glycan array binding signal (z-score),[9],-0.677
same,glycan array binding signal (z-score),[10],-0.394
same,glycan array binding signal (z-score),[11],-0.268
same,glycan array binding signal (z-score),[12],-1.58
same,glycan array binding signal (z-score),[13],-0.268
same,glycan array binding signal (z-score),[14],-0.541
same,glycan array binding signal (z-score),[15],-0.356
same,glycan array binding signal (z-score),[16],1.16
same,glycan array binding signal (z-score),[17],-0.293
same,glycan array binding signal (z-score),[18],0.016
same,glycan array binding signal (z-score),Fuc(a1-2)Gal(b1-4)Glc,0.474
same,glycan array binding signal (z-score),Fuc(a1-2)Gal(b1-4)Glc6S,-0.306
same,glycan array binding signal (z-score),Fuc(a1-2)Gal(b1-4)GlcNAc,-0.756
same,glycan array binding signal (z-score),[19],-1.49
same,glycan array binding signal (z-score),[20],-0.756
same,glycan array binding signal (z-score),[21],0.188
same,glycan array binding signal (z-score),[22],2.03
same,glycan array binding signal (z-score),[23],-0.763
same,glycan array binding signal (z-score),[24],0.382
same,glycan array binding signal (z-score),[25],-0.904
same,glycan array binding signal (z-score),[26],0.531
same,glycan array binding signal (z-score),[27],-0.481
same,glycan array binding signal (z-score),[28],-1.15
same,glycan array binding signal (z-score),[29],-1.66
same,glycan array binding signal (z-score),[30],-0.827
same,glycan array binding signal (z-score),[31],-0.703
same,glycan array binding signal (z-score),[32],-0.007
same,glycan array binding signal (z-score),[33],1.85
same,glycan array binding signal (z-score),[34],0.164
same,glycan array binding signal (z-score),[35],1.7
same,glycan array binding signal (z-score),[36],-0.71
same,glycan array binding signal (z-score),[37],-0.155
same,glycan array binding signal (z-score),[38],-0.63
same,glycan array binding signal (z-score),[39],-1.52

# Given bar-delimited: entries from further up
binder | measurement | setting | value
B1 | glycan array binding signal (z-score) | [19] | -1.49
same | glycan array binding signal (z-score) | [20] | -0.756
